Reference: PubChem BioAssay AID493014 (National Center for Advancing Translational Sciences (NCATS), 2011)
This is one part of the list. The main result of the screen is listed elsewhere. These columns were measured beside it and carry no call. The list favours compounds with an active or inconclusive main result. The note in brackets gives the kind of curve behind each potency; many fits are weak.

Experiment: qHTS Assay to Find Inhibitors of Chronic Active B-Cell Receptor Signaling
Details: ABC-DLBCL IkBa-CBG/CBR reporter, luminescence ratio (green luciferase fused to IkBa over red control in TMD8 lymphoma cells), 4 h; measured here: CBR red luminescence, cell number
Summary of the method: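 Compounds up to 46 uM were incubated four hours with TMD8 cells whose green CBG68 luciferase is fused to IkappaBalpha; red CBR luminescence normalised the signal, and concentration-effect curves were fitted to fusion, red and ratio data.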
With `O=C(CS(=O)(=O)c1ccccc1)N1CCN(c2ccccc2)CC1` the AC50 was 4.11 µM [rising, partial curve, poor fit]. For `CN(C)c1ccc(N=c2sc3ccccc3n2C)cc1`, the AC50 was 4.11 µM [rising, single point]. For `O=C(NCc1ccccc1Br)c1ccco1`, the AC50 was 7.31 µM [falling, partial curve, poor fit]. With `CC(C)Cc1cc(C(=O)Nc2cccc(O)c2)no1` the AC50 was 10 µM [falling, partial curve]. For `CCC(=O)Nc1nnc(S(=O)(=O)N(C)c2cc(C)cc(C)c2)s1`, the AC50 was 4.47 µM [rising, single point]. For `COc1ccc(-n2nc(C(=O)NCC(=O)N3CCN(c4ccccc4OC)CC3)c3ccccc3c2=O)cc1OC`, the AC50 was 3.98 µM [rising, partial curve, poor fit]. In the case of `COc1cc(C2C(C(=O)c3ccc(C)o3)=C(O)C(=O)N2c2cc(C)on2)ccc1O` (stereo unspecified), the AC50 is reported as 5.01 µM [rising, single point]. In the case of `COc1cc(C(C(=O)NC2CCCC2)N(CCO)C(=O)Cn2nnc(-c3ccc(C)o3)n2)ccc1O` (stereo unspecified), the AC50 is reported as 3.16 µM [falling, partial curve, poor fit]. For `CCCC(=O)n1nc(-c2ccco2)nc1SCc1ccccc1`, the AC50 was 20.6 µM [falling, partial curve]. In the case of `Cc1onc(-c2ccccc2)c1C(=O)Nc1sc2c(c1C#N)CCC2`, the AC50 is reported as 5.8 µM [falling, partial curve, poor fit]. In the case of `COCC(=O)N(C)C1(c2nnnn2CCOC(=O)Nc2ccc(Cl)cc2)CCCC1`, the AC50 is reported as 3.26 µM [rising, partial curve]. In the case of `O=C(/C=C/c1ccco1)N(Cc1ccccc1)C1CCS(=O)(=O)C1` (stereo unspecified), the AC50 is reported as 14.1 µM [rising, single point]. In the case of `COCCNS(=O)(=O)c1cc(OC)c(Cl)cc1Cl`, the AC50 is reported as 2.59 µM [rising, single point]. For `CSc1ccccc1NC(=O)COc1ccc2c(c1)OCO2`, the AC50 was 6.51 µM [falling, partial curve]. With `CCSc1nnc(NC(=O)C(C)(C)C)s1` the AC50 was 6.31 µM [rising, full curve, poor fit]. In the case of `O=C(NC1CCCCC1)c1ccc(N2CCOCC2)c([N+](=O)[O-])c1`, the AC50 is reported as 5.01 µM [rising, full curve, poor fit]. In the case of `N#Cc1c(=O)c2nc(NCCCO)ncc2n2c(=O)c3ccccc3[nH]c12`, the AC50 is reported as 10 µM [falling, partial curve]. In the case of `Cc1cc(SCC(=O)Nc2ccc(O)cc2)n2nc(C)c(-c3ccccc3)c2n1`, the AC50 is reported as 35.5 µM [falling, single point]. For `CNc1ccccc(C(=O)/C=C/c2ccccc2OC)c1=O`, the AC50 was 18.4 µM [falling, partial curve]. For `CC(=O)c1c(C)[nH]c(C(=O)NCc2ccc(C)cc2)c1C`, the AC50 was 2.06 µM [falling, partial curve, poor fit]. For `CC1(C)CC(=O)C2=C(C1)OC(N)=C(C#N)C21C(=O)N(Cc2ccccc2Cl)c2ccccc21` (stereo unspecified), the AC50 was 0.461 µM [falling, full curve, poor fit]. With `N#C/C(C(N)=O)=C1/CCc2ccccc2N1` the AC50 was 4.61 µM [falling, full curve, poor fit]. In the case of `O=C1NCCOC(=O)[C@H](Cc2ccc(F)cc2)C/C=C\C[C@@H]1CC(=O)N(CCO)Cc1ccccc1`, the AC50 is reported as 6.51 µM [falling, single point]. In the case of `Cc1nc2cc(NC(=O)Nc3ccccc3Cl)ccc2n1C`, the AC50 is reported as 12.6 µM [falling, partial curve]. With `O=C(Nc1nccs1)c1ccc(S(=O)(=O)N2CCOCC2)cc1` the AC50 was 12.6 µM [falling, partial curve]. With `O=C(NN=C1CCCCC1)c1ccccc1OCc1ccc(F)cc1` the AC50 was 20.6 µM [falling, single point]. For `O=C(O)C(Cc1ccccc1)N1C(=O)/C(=C/c2ccccc2)SC1=S` (stereo unspecified), the AC50 was 25.9 µM [falling, single point]. For `CCCOC(=S)NC(=O)c1sc2ccccc2c1Cl`, the AC50 was 20 µM [falling, single point]. For `CC(=O)Nc1ccc(S(=O)(=O)N2CCN(c3cnn(C)c(=O)c3Cl)CC2)cc1`, the AC50 was 5.01 µM [rising, partial curve, poor fit]. In the case of `CC(NC(=O)CSc1nc2sc3c(c2c(=O)n1-c1ccccc1)CCCC3)c1ccccc1` (stereo unspecified), the AC50 is reported as 2.31 µM [falling, partial curve, poor fit]. For `O=C(COc1ccc(Br)cc1)NCC1COc2ccccc2O1` (stereo unspecified), the AC50 was 1.64 µM [rising, full curve]. In the case of `CCOC(=O)c1ccc(NC(=O)c2ccc(NS(C)(=O)=O)cc2)cc1`, the AC50 is reported as 18.4 µM [falling, partial curve]. In the case of `Cn1c(C(=O)NCc2ccccc2)cc2oc3ccccc3c21`, the AC50 is reported as 0.58 µM [falling, full curve, poor fit]. In the case of `O=C(NNC(=O)c1ccc(-n2cncn2)c([N+](=O)[O-])c1)c1ccccc1`, the AC50 is reported as 20.6 µM [falling, partial curve]. In the case of `CCNCC(=O)N1c2ccccc2CCc2ccc(NC(=O)OC(C)C)cc21`, the AC50 is reported as 12.6 µM [falling, single point]. For `Cn1c(/C(C#N)=C/c2cccc(O)c2)nc2ccccc21`, the AC50 was 10 µM [falling, single point]. With `O=C(Cc1nc2ccccc2s1)c1ccc(O)cc1O` the AC50 was 13 µM [falling, single point]. For `CCCn1c(=O)c(C(=O)NNC(=O)c2ccccc2[N+](=O)[O-])c(O)c2ccccc21`, the AC50 was 12.6 µM [falling, partial curve]. For `S=C(Nc1ccc(-c2nc3ccccc3[nH]2)cc1)Nc1cccnc1`, the AC50 was 8.91 µM [falling, partial curve]. In the case of `O=C(c1ccccc1Cl)N1CCN(S(=O)(=O)c2cccs2)CC1`, the AC50 is reported as 1.41 µM [rising, full curve, poor fit]. With `Cc1c(CCCN)c2ccccc2n1Cc1ccccc1` the AC50 was 10 µM [falling, partial curve, poor fit]. With `CC(=O)Nc1ccc(S(=O)(=O)NC(C)C(=O)OCCOc2ccc(F)cc2)cc1` (stereo unspecified) the AC50 was 29.1 µM [rising, single point]. In the case of `COc1cccc(NC(=O)Nc2cccn(Cc3ccccc3)c2=O)c1`, the AC50 is reported as 7.08 µM [falling, partial curve]. For `O=C(Cc1ccccc1)N/N=C/c1cc(Br)cc(Cl)c1O`, the AC50 was 7.08 µM [rising, partial curve]. With `COc1ccc(C(=O)N(Cc2ccccc2)c2cccc(C)c2)c(OC)c1OC` the AC50 was 3.55 µM [rising, full curve, poor fit]. For `COc1cccc(OCc2nnc(SCC(=O)NCc3ccco3)n2CCc2ccccc2)c1`, the AC50 was 35.5 µM [falling, single point]. In the case of `CC1=NN(c2nc3ccccc3s2)C(O)(C(F)(F)F)C1` (stereo unspecified), the AC50 is reported as 35.5 µM [rising, single point]. With `COc1ccccc1Nc1ccc(NC(=O)c2cccc([N+](=O)[O-])c2C)cc1` the AC50 was 35.5 µM [falling, single point]. In the case of `Cc1cnc(C(=O)Oc2c(C)ccc(C)c2C)cn1`, the AC50 is reported as 35.5 µM [rising, single point]. With `CCCOc1ccc(C2C(=O)N(C3CCCCCC3)CC(=O)N2Cc2ccco2)cc1OC` (stereo unspecified) the AC50 was 25.9 µM [rising, single point]. In the case of `CN1CCN(c2ccc(Cl)cc2NC(=O)CN2C(=O)NC(C)(c3ccccc3)C2=O)CC1` (stereo unspecified), the AC50 is reported as 32.6 µM [falling, single point]. In the case of `CC(=O)NC1C(Oc2ccccc2C)OC(CO)C(O)C1O` (stereo unspecified), the AC50 is reported as 35.5 µM [rising, single point]. In the case of `CC(C)c1ccc(N2C=Nc3ccc(C(C)C)cc3C2)cc1`, the AC50 is reported as 0.891 µM [falling, full curve, poor fit]. In the case of `COc1ccc(-c2noc(CSc3nc(-c4ccccc4)cc(=O)[nH]3)n2)cc1OC`, the AC50 is reported as 2 µM [falling, partial curve, poor fit]. For `CCc1nnc(N/N=C/c2ccc(-c3ccc([N+](=O)[O-])cc3)o2)n1N`, the AC50 was 35.5 µM [falling, single point]. In the case of `N#C/C(=C/c1ccc(N2CCOCC2)o1)C(=O)NC1CCCCC1`, the AC50 is reported as 10 µM [falling, partial curve]. With `CCc1c(C)nc2c(-c3ccccc3)c(C)nn2c1Nc1ccc(NC(C)=O)cc1` the AC50 was 10 µM [falling, partial curve, poor fit]. For `Cc1nc2nc(NCc3cccs3)nn2c(C)c1Cl`, the AC50 was 13 µM [falling, single point]. For `CO/C=C\C=C/c1nnn(-c2ccc(Cl)cc2)n1`, the AC50 was 18.4 µM [rising, single point]. With `Cc1cccc(N/C=C/C(=C(C#N)C#N)N(C)C)c1` the AC50 was 14.6 µM [rising, single point]. In the case of `Cc1ccc2nc(NCC(N)=O)nc(-c3ccccc3)c2c1`, the AC50 is reported as 3.55 µM [falling, partial curve, poor fit]. In the case of `Oc1c(N=Nc2ccccc2)sc2ccccc12`, the AC50 is reported as 0.891 µM [falling, full curve]. In the case of `Cc1nnc(Oc2ccc([N+](=O)[O-])cc2)c2ccccc12`, the AC50 is reported as 35.5 µM [rising, single point]. In the case of `COc1ccc(NC(C)C(=O)N/N=C/c2cc(Br)ccc2OC)cc1` (stereo unspecified), the AC50 is reported as 35.5 µM [falling, single point]. For `CCOC(=O)Cn1c(=O)oc2cc(S(=O)(=O)Nc3cc(Cl)ccc3OC)ccc21`, the AC50 was 32.6 µM [falling, single point]. In the case of `CCOCCCNc1nc2c(-c3ccccc3)nnn2c2ccccc12`, the AC50 is reported as 14.6 µM [falling, partial curve].
